According to the supplement of paper PMC10849652:
The list shows a part of the results.

Protein sequences, listed by entry. Tags and fused reporters are not part of them. Lines headed by an entry give the natural chain unless they say otherwise; changes in a name come on top.
UniProt O94776: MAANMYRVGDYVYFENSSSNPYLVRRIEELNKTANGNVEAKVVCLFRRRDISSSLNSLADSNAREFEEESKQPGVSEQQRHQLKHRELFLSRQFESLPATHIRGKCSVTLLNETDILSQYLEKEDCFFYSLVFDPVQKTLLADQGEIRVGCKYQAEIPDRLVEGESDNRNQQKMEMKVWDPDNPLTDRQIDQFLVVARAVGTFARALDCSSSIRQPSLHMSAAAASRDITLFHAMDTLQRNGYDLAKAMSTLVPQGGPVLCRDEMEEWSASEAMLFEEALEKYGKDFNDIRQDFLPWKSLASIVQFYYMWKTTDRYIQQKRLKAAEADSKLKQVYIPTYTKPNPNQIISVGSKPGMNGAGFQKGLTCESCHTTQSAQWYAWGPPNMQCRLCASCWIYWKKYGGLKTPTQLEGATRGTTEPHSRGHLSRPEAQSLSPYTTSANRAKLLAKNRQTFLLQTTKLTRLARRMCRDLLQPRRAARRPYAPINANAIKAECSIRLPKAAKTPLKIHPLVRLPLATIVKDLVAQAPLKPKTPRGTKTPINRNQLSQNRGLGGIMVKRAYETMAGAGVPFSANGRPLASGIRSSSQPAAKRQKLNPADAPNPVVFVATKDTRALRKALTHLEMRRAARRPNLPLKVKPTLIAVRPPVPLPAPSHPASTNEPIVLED
UniProt P03886, whole entry, looked up: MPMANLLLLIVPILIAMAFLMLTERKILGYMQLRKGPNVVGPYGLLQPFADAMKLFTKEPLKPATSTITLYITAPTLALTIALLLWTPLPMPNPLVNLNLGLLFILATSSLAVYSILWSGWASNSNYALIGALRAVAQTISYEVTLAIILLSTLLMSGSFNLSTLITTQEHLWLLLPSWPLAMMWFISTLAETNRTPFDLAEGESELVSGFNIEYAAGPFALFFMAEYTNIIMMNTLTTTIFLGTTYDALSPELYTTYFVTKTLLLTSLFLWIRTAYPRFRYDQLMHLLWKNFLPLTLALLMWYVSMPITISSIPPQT
UniProt Q15746, whole entry, looked up: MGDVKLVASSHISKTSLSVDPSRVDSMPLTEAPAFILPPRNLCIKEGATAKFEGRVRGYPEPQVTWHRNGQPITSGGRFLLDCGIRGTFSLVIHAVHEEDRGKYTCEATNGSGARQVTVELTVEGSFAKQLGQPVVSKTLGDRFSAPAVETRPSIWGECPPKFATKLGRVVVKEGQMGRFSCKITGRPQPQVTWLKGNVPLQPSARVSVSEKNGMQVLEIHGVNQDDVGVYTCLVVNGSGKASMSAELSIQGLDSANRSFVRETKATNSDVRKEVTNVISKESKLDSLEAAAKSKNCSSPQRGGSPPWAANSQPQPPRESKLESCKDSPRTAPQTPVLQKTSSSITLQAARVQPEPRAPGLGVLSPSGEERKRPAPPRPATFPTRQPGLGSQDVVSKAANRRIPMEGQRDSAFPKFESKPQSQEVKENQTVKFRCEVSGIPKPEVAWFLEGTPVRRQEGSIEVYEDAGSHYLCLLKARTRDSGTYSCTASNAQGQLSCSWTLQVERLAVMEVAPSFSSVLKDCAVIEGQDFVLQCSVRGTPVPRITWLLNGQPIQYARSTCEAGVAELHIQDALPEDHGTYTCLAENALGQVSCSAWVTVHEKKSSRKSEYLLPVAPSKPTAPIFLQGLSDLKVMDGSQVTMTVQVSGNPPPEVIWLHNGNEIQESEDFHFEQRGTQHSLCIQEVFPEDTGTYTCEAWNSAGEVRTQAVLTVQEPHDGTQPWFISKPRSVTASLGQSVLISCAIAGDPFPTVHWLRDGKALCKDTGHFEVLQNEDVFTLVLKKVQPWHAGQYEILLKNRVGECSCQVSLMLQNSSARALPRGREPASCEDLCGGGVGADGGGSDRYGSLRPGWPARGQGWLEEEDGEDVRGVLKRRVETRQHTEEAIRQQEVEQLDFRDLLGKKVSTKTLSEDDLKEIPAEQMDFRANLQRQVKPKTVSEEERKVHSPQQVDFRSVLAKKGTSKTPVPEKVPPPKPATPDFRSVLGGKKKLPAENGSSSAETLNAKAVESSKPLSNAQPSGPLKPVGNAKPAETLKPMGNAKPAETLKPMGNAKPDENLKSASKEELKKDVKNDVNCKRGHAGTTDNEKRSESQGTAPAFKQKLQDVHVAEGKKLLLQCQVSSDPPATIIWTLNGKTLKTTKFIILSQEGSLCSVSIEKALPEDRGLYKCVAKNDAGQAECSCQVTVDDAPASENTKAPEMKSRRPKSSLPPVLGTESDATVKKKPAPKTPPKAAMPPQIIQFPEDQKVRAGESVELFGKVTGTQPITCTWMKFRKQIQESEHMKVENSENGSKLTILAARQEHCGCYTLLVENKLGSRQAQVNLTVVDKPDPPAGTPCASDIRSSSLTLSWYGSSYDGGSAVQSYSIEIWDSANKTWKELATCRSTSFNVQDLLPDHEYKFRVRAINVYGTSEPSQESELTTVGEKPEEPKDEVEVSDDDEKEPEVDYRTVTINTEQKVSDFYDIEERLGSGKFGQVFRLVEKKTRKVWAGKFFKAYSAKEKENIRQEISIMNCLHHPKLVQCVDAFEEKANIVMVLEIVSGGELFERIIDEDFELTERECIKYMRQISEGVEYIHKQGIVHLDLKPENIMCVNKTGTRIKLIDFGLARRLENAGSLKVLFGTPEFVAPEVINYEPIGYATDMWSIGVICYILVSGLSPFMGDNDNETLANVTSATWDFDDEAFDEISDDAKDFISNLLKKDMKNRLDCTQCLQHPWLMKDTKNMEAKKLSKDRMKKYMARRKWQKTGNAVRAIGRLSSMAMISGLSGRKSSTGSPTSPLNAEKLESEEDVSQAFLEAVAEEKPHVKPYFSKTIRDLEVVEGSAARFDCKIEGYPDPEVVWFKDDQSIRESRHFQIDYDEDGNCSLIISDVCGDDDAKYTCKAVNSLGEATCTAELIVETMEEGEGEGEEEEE
UniProt O14950, whole entry, looked up: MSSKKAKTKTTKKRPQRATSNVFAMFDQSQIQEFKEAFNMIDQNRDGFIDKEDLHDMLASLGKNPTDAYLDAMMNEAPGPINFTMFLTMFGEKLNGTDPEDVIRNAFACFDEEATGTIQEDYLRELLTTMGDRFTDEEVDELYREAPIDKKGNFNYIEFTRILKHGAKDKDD
UniProt Q9ULH7: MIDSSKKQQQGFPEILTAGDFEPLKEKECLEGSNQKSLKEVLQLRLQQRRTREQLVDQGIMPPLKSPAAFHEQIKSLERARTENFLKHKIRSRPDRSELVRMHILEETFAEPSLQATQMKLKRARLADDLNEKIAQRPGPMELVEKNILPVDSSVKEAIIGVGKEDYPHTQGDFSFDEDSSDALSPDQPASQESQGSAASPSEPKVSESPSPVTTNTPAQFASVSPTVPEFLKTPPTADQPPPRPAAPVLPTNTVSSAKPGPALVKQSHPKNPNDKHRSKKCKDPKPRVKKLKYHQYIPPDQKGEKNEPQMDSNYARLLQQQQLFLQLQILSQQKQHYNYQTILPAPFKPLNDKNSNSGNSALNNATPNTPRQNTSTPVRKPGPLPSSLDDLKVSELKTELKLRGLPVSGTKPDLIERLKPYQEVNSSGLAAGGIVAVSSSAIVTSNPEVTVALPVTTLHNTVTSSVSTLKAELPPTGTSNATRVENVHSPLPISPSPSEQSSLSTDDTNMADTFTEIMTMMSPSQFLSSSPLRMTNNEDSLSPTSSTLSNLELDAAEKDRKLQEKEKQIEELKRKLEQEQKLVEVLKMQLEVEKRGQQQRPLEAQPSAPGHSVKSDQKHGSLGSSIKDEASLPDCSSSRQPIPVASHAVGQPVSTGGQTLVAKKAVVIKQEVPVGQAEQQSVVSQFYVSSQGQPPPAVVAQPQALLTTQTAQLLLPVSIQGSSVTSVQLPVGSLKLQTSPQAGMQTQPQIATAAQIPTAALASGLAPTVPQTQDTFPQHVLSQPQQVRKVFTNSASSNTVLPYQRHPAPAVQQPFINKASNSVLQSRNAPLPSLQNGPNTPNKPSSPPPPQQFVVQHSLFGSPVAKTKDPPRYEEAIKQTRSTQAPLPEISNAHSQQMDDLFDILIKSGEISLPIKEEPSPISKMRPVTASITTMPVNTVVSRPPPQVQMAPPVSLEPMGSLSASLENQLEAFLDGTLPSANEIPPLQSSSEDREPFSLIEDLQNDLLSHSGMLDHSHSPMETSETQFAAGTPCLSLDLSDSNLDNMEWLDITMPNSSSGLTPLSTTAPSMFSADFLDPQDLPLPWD
UniProt P20585: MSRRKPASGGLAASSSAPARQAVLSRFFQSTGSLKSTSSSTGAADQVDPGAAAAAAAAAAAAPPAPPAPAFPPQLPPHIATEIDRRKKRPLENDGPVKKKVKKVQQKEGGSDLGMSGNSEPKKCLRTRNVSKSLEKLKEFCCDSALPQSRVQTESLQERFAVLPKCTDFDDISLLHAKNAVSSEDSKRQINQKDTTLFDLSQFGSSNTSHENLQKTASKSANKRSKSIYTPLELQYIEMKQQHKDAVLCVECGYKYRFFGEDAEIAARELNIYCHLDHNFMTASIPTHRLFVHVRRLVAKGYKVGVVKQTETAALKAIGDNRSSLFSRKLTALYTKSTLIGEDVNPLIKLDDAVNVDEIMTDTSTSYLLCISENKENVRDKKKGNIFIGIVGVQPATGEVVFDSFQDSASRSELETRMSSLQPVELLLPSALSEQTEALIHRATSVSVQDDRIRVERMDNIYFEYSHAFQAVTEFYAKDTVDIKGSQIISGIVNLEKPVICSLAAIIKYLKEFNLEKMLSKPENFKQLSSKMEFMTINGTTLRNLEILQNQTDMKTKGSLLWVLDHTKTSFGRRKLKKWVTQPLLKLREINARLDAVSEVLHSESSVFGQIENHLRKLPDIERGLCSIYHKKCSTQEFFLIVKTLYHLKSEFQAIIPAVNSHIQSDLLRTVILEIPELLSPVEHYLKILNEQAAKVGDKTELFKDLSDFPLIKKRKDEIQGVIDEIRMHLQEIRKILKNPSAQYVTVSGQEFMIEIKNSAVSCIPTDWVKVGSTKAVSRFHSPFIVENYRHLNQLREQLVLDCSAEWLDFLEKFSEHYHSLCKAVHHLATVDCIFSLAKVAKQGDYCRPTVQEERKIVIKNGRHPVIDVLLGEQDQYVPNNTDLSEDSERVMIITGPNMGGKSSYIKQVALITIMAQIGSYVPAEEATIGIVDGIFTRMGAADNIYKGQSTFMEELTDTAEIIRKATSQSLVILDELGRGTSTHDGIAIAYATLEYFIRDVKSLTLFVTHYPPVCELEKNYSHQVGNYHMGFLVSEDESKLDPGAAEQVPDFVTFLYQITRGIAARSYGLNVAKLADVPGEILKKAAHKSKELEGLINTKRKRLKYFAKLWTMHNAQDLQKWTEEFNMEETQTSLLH
UniProt Q96S97: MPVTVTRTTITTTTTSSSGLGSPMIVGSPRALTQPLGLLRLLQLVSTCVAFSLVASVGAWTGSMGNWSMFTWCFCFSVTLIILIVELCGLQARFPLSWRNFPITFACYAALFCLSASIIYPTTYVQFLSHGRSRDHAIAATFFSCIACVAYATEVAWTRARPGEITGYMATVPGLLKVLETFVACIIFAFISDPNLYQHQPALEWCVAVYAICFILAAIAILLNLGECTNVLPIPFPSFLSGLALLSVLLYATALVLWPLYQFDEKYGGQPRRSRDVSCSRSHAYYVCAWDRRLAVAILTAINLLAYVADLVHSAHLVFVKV

Key:
Assay in all cases: log2 fold change, soluble protein after heating vs DMSO (PISA); higher = thermal stabilisation; K562 cells, 10 uM, 30 min; active = over 0.2 and 3.5 SD of the protein, either way, in both replicates (recomputed)
[1] = compound: C1=CC=C(C=C1)[C@H](COC2=CC3=C(C=C2)NC(=O)N3)NC(=O)C4=CC=CN(C4=O)CC5=CC(=C(C=C5)F)F
Outline: (§1)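 Soluble protein was defined as the supernatant after 21,000xg for 90 min. It came from K562 cells at 2×10^6 cells/mL given 10 μM compound for 30 min, heated in aliquots for 3 min across 48°C-58°C, pooled, and extracted in PBS with 0.5% NP-40 at 4°C, and was quantified by TMTpro 16plex LC-MS/MS with equalised channel sums. Thermal stability against control samples, from duplicates, is reported as log2 fold change.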

[2] = compound: CC1=C(SC2=C1C(=N[C@H](C3=NN=C(N32)C)CC(=O)N)C4=CC=C(C=C4)Cl)C
Outline: as §1

[3] = compound: CC1=C2C(=CC=C1)N=C(N(C2=O)C3=CC=CC=C3C)CN4C=NC5=C(N=CN=C54)N
Outline: as §1

[4] = compound: Cc1sc2c(c1C)C(c1ccc(Cl)cc1)=N[C@@H](CC(=O)OC(C)(C)C)c1nnc(C)n1-2
Outline: as §1

[5] = compound: c1ccc([C@@H]2C[C@H]2NC2CCNCC2)cc1
Outline: as §1

Measured: log2 fold change

MTR (UniProt Q99707)
inactive: [1] 0.009 | [2] -0.043 | [3] 0.023 | [4] 0.084 | [5] -0.018

MTA2 (UniProt O94776)
inactive: [1] -0.026 | [2] 0.031 | [3] 0.027 | [4] 0.032 | [5] -0.002

MT-ND1 (UniProt P03886)
inactive: [1] -0.024 | [2] -0.12 | [3] -0.24 | [4] -0.102 | [5] 0.177

MYLK (UniProt Q15746)
inactive: [1] -0.08 | [2] -0.053 | [3] 0.096 | [4] 0.118 | [5] -0.21

Three neighbouring records out of the list so far:
MTA2 (UniProt O94776)
inactive: [1] -0.026 | [2] 0.031 | [3] 0.027 | [4] 0.032 | [5] -0.002

MT-ND1 (UniProt P03886)
inactive: [1] -0.024 | [2] -0.12 | [3] -0.24 | [4] -0.102 | [5] 0.177

MYLK (UniProt Q15746)
inactive: [1] -0.08 | [2] -0.053 | [3] 0.096 | [4] 0.118 | [5] -0.21

Remaining list, next part:

MYL12B (UniProt O14950)
inactive: [1] 0.028 | [2] 0.054 | [3] 0.009 | [4] -0.025 | [5] -0.077

MRTFB isoform 5 (UniProt Q9ULH7)
inactive: [1] -0.025 | [2] 0.029 | [3] 0.086 | [4] 0.032 | [5] 0.032

MSH3 (UniProt P20585)
inactive: [1] 0.008 | [2] 0.085 | [3] 0.052 | [4] -0.028 | [5] -0.087

MRPS14 (UniProt O60783)
inactive: [1] -0.011 | [2] -0.127 | [3] 0.012 | [4] 0.131 | [5] 0.092

MYO18A (UniProt Q92614)
inactive: [1] 0.093 | [2] -0.042 | [3] 0.021 | [4] 0.054 | [5] 0

MYCBP2 (UniProt O75592)
inactive: [1] 0.048 | [2] 0.244 | [3] 0.273 | [4] 0.313 | [5] -0.063

MYADM (UniProt Q96S97)
inactive: [1] -0.055 | [2] -0.064 | [3] 0.059 | [4] -0.07 | [5] -0.091

MRPS24 (UniProt Q96EL2)
inactive: [1] -0.016 | [2] -0.026 | [3] -0.026 | [4] 0.148 | [5] 0.037

MRPS2 (UniProt Q9Y399)
inactive: [1] -0.084 | [2] 0.147 | [3] -0.042 | [4] 0.079 | [5] 0.003
